Results are given in words; binding and its absence hold for the method and conditions named. Some binding calls cover weakened binding; strength is not graded here.
Target: AIM-II, full sequence, on stably transfected HEK 293 EBNA cells (UniProt O43557)
Test: flow cytometry on AIM-II-transfected HEK 293 EBNA cells

The chains behind the UniProt entries cited, without tags or fusion partners. Residues count along the entry.
UniProt O43557: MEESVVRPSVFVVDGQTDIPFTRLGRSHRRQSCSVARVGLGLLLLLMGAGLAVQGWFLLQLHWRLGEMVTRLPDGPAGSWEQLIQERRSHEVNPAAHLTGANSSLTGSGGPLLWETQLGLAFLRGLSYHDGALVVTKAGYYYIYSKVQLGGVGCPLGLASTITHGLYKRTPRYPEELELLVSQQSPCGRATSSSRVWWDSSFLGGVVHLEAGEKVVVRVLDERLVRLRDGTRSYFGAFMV
UniProt P36941, residues 31-227: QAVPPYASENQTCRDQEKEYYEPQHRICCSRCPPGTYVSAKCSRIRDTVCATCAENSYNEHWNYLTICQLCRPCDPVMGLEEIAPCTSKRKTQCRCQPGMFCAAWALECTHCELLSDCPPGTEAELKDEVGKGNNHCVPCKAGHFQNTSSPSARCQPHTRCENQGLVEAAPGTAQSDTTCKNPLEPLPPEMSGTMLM

Substance: LTβR-Fc (from UniProt P36941 31-227) (Fc fusion)
- binding: binds
